Test results: US9012455B2, “Pharmaceutical compositions containing an indoyl isoquinoline containing compound and uses thereof” (The Regents of the University of California, priority 2006, dated 2015)
Some results were stated once for a whole list of compounds, not compound by compound.

Tests used:
[1] = biological target: T1, BRC-RAD51 interaction (Homo sapiens, UniProt Q06609); assay: inducible reverse yeast two-hybrid screening; assay type: cell-based
T1 construct: expressed in transfected cells; host or cells: yeast strain harboring a TetOp-driven URA3 gene
T1 sequence (Q06609 1-339): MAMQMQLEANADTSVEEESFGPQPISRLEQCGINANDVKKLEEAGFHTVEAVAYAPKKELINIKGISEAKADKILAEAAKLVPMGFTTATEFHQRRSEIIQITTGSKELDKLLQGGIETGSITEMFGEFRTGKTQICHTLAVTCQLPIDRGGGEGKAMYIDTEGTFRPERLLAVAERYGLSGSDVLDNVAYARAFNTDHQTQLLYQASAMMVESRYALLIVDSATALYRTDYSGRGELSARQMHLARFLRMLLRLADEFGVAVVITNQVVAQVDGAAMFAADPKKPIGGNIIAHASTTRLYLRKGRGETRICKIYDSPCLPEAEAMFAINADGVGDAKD

[2] = system: parental Ba/F3 cells; details: imatinib 0 to 1.0 μM, absence of IBR2

O=S(=O)(Cc1ccccc1)N1C=Cc2ccccc2C1c1c[nH]c2ccccc12 (centres unmarked) [IBR2] was tested, and the “concentrations found to promote yeast growth” value [1] was “below 10 μM”.
For Cc1ccc(NC(=O)c2ccc(CN3CCN(C)CC3)cc2)cc1Nc1nccc(-c2cccnc2)n1 [imatinib], the apoptotic cells [2] was “less than 5%”.
